Where two headings read alike, the source gives them in different places.
Test: reduction of Cu++ to Cu+ by redox agent

| SMILES | Reduction Cu^++ | Reduction Cu^++ (listed as quercetin) | Reduction Cu^++ (listed as thymol) |
| --- | --- | --- | --- |
| O=C(O)CCCC[C@@H]1CCSS1 (racemic) [Lipoic Acid] | yes |  |  |
| O=C(O)/C=C/c1ccc(O)c(O)c1 [Caffeic acid] | yes |  |  |
| N[C@@H](CS)C(=O)O [Cysteine] | yes |  |  |
| O=C(O)c1cc(O)c(O)c(O)c1 [Gallic acid] | yes |  |  |
| N[C@@H](CCC(=O)N[C@@H](CS)C(=O)NCC(=O)O)C(=O)O [Glutathione] | yes |  |  |
| CC(=O)N[C@@H](CS)C(=O)O [N-acetyl cysteine] | yes |  |  |
| CCCOC(=O)c1cc(O)c(O)c(O)c1 [Propyl gallate] | yes |  |  |
| O=c1c(O)c(-c2ccc(O)c(O)c2)oc2cc(O)cc(O)c12 [Quercetin] | no | did not reduce Cu^2+ |  |
| Cc1ccc(C(C)C)c(O)c1 [Thymol] | no |  | did not reduce Cu^2+ |
| O=c1[nH]c(=O)c2[nH]c(=O)[nH]c2[nH]1 [Uric acid] | yes |  |  |

— US20060120980A1, “Novel dermatological composition using bio-activating organocatalysts” (priority 2004, published 2006)
